The test is described as follows: qHTS Assay for Lipid Storage Modulators in Drosophila S3 Cells.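 For cell number change: cells counted by Cell Tracker Red CMTPX staining in the red channel.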 The following applies: BODIPY lipid droplet fluorescence, 18-24 h; for cell number change: measured here: cell count max response, cells fed with added oleic acid. In short, it runs like this:
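Drosophila S3 cells got compounds at several concentrations plus oleic acid (400 uM solution). Laser-scanning cytometry with 488 nm excitation read lipid droplets at 500-530 nm and cells at 575-640 nm. Percent activity was relative to 20 uM Triacsin C.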
For orientation: Quantitative high-throughput screening tests each substance at several concentrations.

The mark [1] stands for this setting: measured here: cell number channel AC50, cells fed with added oleic acid.
[2] abbreviates: measured here: lipid fluorescence (Fed channel) AC50, cells fed with added oleic acid.

One may read the AC50 as the midpoint of the concentration-response curve, whichever way the signal moves. High values mean activity only at high concentration, low ones activity at low concentration.

Some of the results follow. Shown are side measurements of this screen, not its main read-out; they come without a call. Most of these compounds were active or inconclusive in the main read-out, so they are no random draw. Words in brackets tell the shape of the fitted curve; partial curves, single points and poor fits give uncertain potencies.

For `COc1ccc(OC)c(CCNC(=O)c2ccc(NC3=NC4CS(=O)(=O)CC4S3)cc2)c1` (configuration not stated), the cell number change worked out at 35.7%. In addition, the AC50 under setting [1] is 0.651 µM [rising, partial curve].

Turning to `CSc1ccccc1OCc1cc(C(=O)N2CCN(c3ccccc3)CC2C)no1` (configuration not stated), the cell number change is 31.2%. In addition, the AC50 under setting [1] was 22.4 µM [rising, partial curve, poor fit].

With `N#CC1=C2SCC(O)(c3ccccc3)N2C(=O)CC1c1ccccc1` (configuration not stated), the cell number change was -3.64%.

`CCOc1ccc2[nH]c(=O)c(C(c3nnnn3C3CCCCC3)N3CCN(C)CC3)cc2c1` (configuration not stated): the cell number change amounted to 18.3%. Also, under setting [2], the half-maximal activity concentration (AC50) was 20.6 µM [rising, single point].

Turning to `COC(C)(C)[C@@H](O)COc1c2ccoc2cc2oc(=O)ccc12`, the cell number change is 1.32%. The AC50 under setting [2] was 5.17 µM [rising, partial curve, poor fit].

In the case of `O=C(NC1CCCCC1)N1CCC(n2cnc3ccccc32)CC1`, the cell number change is 0.203%. For the same molecule, the AC50 under setting [2] is 6.51 µM [falling, partial curve].

Consider `COc1ccc(C(=O)N2CCN(c3ccccc3)CC2)cc1S(=O)(=O)N1CCOCC1`, for which the concentration at half-maximal activity (AC50) under setting [2] is 4.11 µM [falling, full curve].

Turning to `Cc1cc(C)c(NC(=O)CSc2nc(COc3ccccc3)nc3ccccc23)c(C)c1`, the cell number change was -23.1%. For the same molecule, the concentration at half-maximal activity (AC50) under setting [2] is 6.51 µM [falling, single point].

In the case of `COc1ccc(C2=NN(C(=O)c3cccs3)C(c3ccccc3O)C2)cc1` (configuration not stated), the cell number change is -36.2%. The AC50 under setting [1] was 20.6 µM [falling, single point]. Also, the concentration at half-maximal activity (AC50) under setting [2] was 23.1 µM [falling, single point].

With `COc1ccccc1OCCNc1cc(N2CCOCC2)ccc1[N+](=O)[O-]`, the half-maximal activity concentration (AC50) under setting [2] was 20.6 µM [rising, single point].

As for `CCOC(=O)CSC1=C(C#N)C(c2sccc2C)CC(=O)N1` (configuration not stated), the cell number change was 58.2%. Further, the AC50 under setting [1] was 29.1 µM [rising, single point].

As for `COCC(=O)Nc1ccc(N2CCN(c3ccccc3)CC2)c(F)c1`, the AC50 under setting [2] was 0.58 µM [rising, single point].

`CCOc1ccc(-c2nc(N)ncc2Oc2ccccc2Br)c(O)c1`: the cell number change was -42%. The AC50 under setting [1] was 29.1 µM [falling, single point]. In addition, the half-maximal activity concentration (AC50) under setting [2] was 3.66 µM [rising, full curve].

For the molecule `CCCn1nnc(NC(=O)c2ccc(-c3cc(Cl)ccc3Cl)o2)n1`, the cell number change is -26.6%.

As to `O=C1C=C(c2ccc(Cl)cc2)OC2(CCCC2)O1`, the cell number change is -17.7%. Further, the AC50 under setting [2] was 0.92 µM [falling, partial curve].

Turning to `COCCNC(=O)c1ccc(C)c(S(=O)(=O)Nc2ccc(C)cc2)c1`, the cell number change amounted to 50.3%. Further, the AC50 under setting [1] is 29.1 µM [rising, single point].

As to `Cc1nc(Cl)c(C(=O)NCc2ccccc2)c(C)c1Cl`, the cell number change came out at 30.2%. In addition, the AC50 under setting [1] is 29.1 µM [rising, single point].

On to `CC1=NN(C(=O)c2ccc(Cn3cc([N+](=O)[O-])cn3)cc2)C(O)(C(F)(F)F)C1` (configuration not stated), for which the cell number change turned out to be 27.9%. For the same molecule, the half-maximal activity concentration (AC50) under setting [2] is 0.058 µM [rising, full curve, poor fit].

As to `COc1ccc(C(=O)Nc2ccccn2)cc1`, the cell number change worked out at 23.6%. Moreover, the AC50 under setting [2] was 23.1 µM [rising, partial curve, poor fit].

For `Nc1ccc(S(N)(=O)=O)cc1N`, the cell number change is -11.7%. Further, the AC50 under setting [2] was 32.6 µM [falling, single point].

For the molecule `Cc1cccc(CN2CCC(CNC(=O)C3CCCN(S(=O)(=O)c4cnc[nH]4)C3)CC2)c1` (configuration not stated), the cell number change is -29.6%. Also, the concentration at half-maximal activity (AC50) under setting [1] was 0.92 µM [falling, full curve]. For the same molecule, the concentration at half-maximal activity (AC50) under setting [2] was 14.6 µM [falling, partial curve].

For the molecule `O=C(NCCc1ccccc1Cl)c1ccc2nc3ccccc3c(=O)n2c1`, the cell number change turned out to be 2.11%.

`Cc1cccc(OCC(=O)O/N=C(\N)Cc2ccc(Cl)cc2)c1`: the cell number change was -2.37%. Also, under setting [1], the AC50 was 0.517 µM [falling, single point].

On to `Cc1cc(NC(=O)C2CCCCC2)ncc1NC(=O)c1ccccn1`, for which the cell number change amounted to 0.894%. Besides, the AC50 under setting [1] was 0.326 µM [falling, partial curve, poor fit]. Moreover, the concentration at half-maximal activity (AC50) under setting [2] was 0.411 µM [falling, partial curve, poor fit].

Take `O=C(NC1CC1)C1CCCN1S(=O)(=O)c1ccc2ccccc2c1` (configuration not stated): the cell number change stood at 9.3%. The half-maximal activity concentration (AC50) under setting [2] is 0.82 µM [falling, single point].

Regarding `O=C(Cn1c(=O)oc2cc(S(=O)(=O)NCc3ccccc3)ccc21)N1CCCC1`, the cell number change stood at 12.8%.

Take `C=CCOC(=O)C1=C(C)NC(=O)NC1C1CC=CCC1` (configuration not stated): the cell number change was -14.1%.

In the case of `COc1ccc2nc(NC(=O)C3CCN(S(=O)(=O)c4cccs4)CC3)sc2c1`, the cell number change is 40.8%. In addition, under setting [1], the AC50 is 4.61 µM [rising, full curve]. In addition, the AC50 under setting [2] is 6.51 µM [rising, single point].

For the molecule `Cc1[nH]c2ccc(S(N)(=O)=O)cc2c1C`, the cell number change is 0.407%. Also, under setting [2], the concentration at half-maximal activity (AC50) is 0.82 µM [rising, full curve, poor fit].

With `CCCn1nc(NC(=O)C(C)(C)C)c2cc3cc(OC)ccc3nc21`, the cell number change was -2.7%. The half-maximal activity concentration (AC50) under setting [2] was 29.1 µM [rising, single point].

As for `NCC(c1ccccc1Cl)c1c[nH]c2ccccc12` (configuration not stated), the cell number change is -23.6%. For the same molecule, under setting [2], the half-maximal activity concentration (AC50) was 29.1 µM [rising, single point].

Consider `Clc1ccc(Nc2nc(-c3cccs3)cs2)nc1`, for which the AC50 under setting [1] was 2.06 µM [rising, partial curve] and the AC50 under setting [2] was 2.31 µM [rising, partial curve].

`Cn1[nH]c(=O)c(Cl)c(Cl)c1=O`: the cell number change was -18%.

For `Cc1ccc(S(=O)(=O)CCc2nnc(NC(=O)c3ccccn3)s2)cc1`, the cell number change is -40.9%. Further, under setting [2], the AC50 is 0.00517 µM [falling, full curve].

In the case of `Cc1ccc(Cl)cc1NC(=O)C(=O)N1CCCCC1`, the cell number change worked out at 42.1%. For the same molecule, the AC50 under setting [1] is 1.03 µM [rising, full curve, poor fit]. Besides, under setting [2], the AC50 was 14.6 µM [rising, partial curve].

Consider `FC(F)(F)c1cccc(Nc2nc(N3CCOCC3)nc(N3CCOCC3)n2)c1`, for which the cell number change was -9.07%. For the same molecule, under setting [2], the AC50 is 0.82 µM [rising, full curve].

Regarding `Cc1ccc(NCc2nnc(SCC(=O)c3ccccc3)n2Cc2ccco2)c(C)c1`, the cell number change is 4.57%. Also, under setting [2], the half-maximal activity concentration (AC50) was 2.31 µM [rising, partial curve].

`O=S(=O)(NCc1ccccc1)c1ccc(F)cc1Br`: the cell number change was found to be 16.3%.

`O=[N+]([O-])c1cccc2ccc(/C=C/c3ccc(F)cc3)nc12`: the cell number change was 33.3%. Further, the AC50 under setting [1] is 32.6 µM [rising, single point]. Further, under setting [2], the concentration at half-maximal activity (AC50) is 0.517 µM [rising, full curve].

For the molecule `CCOCCOC(=O)c1ccc(NC(=O)C2COc3ccccc3O2)cc1` (configuration not stated), the cell number change was -4.67%. The AC50 under setting [1] is 5.17 µM [falling, single point].

Source of the values: PubChem BioAssay AID2685 (National Center for Advancing Translational Sciences (NCATS), 2010).
